Data as given in PubChem BioAssay AID504808 (Drosophila RNAi Screening Center, 2011).
Screen: 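Genes whose loss lifts activity of an E2F-responsive reporter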 (primary screen). System: Drosophila S2 cells. Knock-down reagent: long dsRNA against Drosophila genes. Measured: 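Firefly luciferase driven by E2F sites, normalised to Renilla luciferase on the same minimal promoter, measured by plate reader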. Reading the numbers: E2F firefly: higher = more E2F reporter activity; Renilla normaliser: higher = more normaliser reporter signal. Rule for the call: 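Called active if the normalised E2F reporter went up by over 50%; the cutoff is arbitrary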.
The screen tested about 21,000 reagents; shown is an unselected part of those that have a named target and a result. In the full data, 18 (0.084%) are marked active. 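Raw counts without plate normalisation, one of two replicates; the ratio scores behind the calls were not deposited.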 The numbers tell different reagents against one gene apart. Not stated in the record: the amount of reagent, the time to read-out.

| gene | reagent no. | E2F firefly, rep 1 | Renilla normaliser, rep 1 | call |
| --- | --- | --- | --- | --- |
| TotM | 1 | 1.56e5 | 5674 | inactive |
| SoxN | 1 | 1.59e5 | 5647 | inactive |
| CG31406 | 1 | 75777 | 3828 | inactive |
| Slc25A46a | 1 | 8401 | 804 | inactive |
| ari-1 | 1 | 2.48e5 | 6694 | inactive |
| CG34338 | 1 | 78096 | 2786 | inactive |
| Rab35 | 1 | 1.52e5 | 5016 | inactive |
| CG5103 | 1 | 1.58e5 | 8234 | inactive |
| hppy | 1 | 1.52e5 | 5417 | inactive |
| hppy | 2 | 1.56e5 | 5188 | inactive |
| hppy | 3 | 1.64e5 | 4970 | inactive |
| Nek2 | 1 | 8251 | 884 | inactive |
| Zip42C.1 | 1 | 1.05e5 | 3883 | inactive |
| sens-2 | 1 | 1.44e5 | 5322 | inactive |
| sens-2 | 2 | 1.45e5 | 5363 | inactive |
| CG31249 | 1 | 1.45e5 | 8861 | inactive |
| CG43078 | 1 | 86792 | 4094 | inactive |
| CG43078 | 2 | 84276 | 3779 | inactive |
| goe | 1 | 1.29e5 | 5713 | inactive |
| CG8562 | 1 | 95601 | 4717 | inactive |
| CG13920 | 1 | 75722 | 3609 | inactive |
| CROT | 1 | 1601 | 856 | inactive |
| CROT | 2 | 1.23e5 | 6587 | inactive |
| Ldaf1 | 1 | 1825 | 1040 | inactive |
| ppk5 | 1 | 81904 | 3653 | inactive |
| sip1 | 1 | 1.34e5 | 5055 | inactive |
| CG5800 | 1 | 1.46e5 | 7002 | inactive |
| Iml1 | 1 | 68256 | 3029 | inactive |
| Prosalpha5 | 1 | 63571 | 3549 | inactive |
| Srx | 1 | 1.55e5 | 7323 | inactive |
| BRWD3 | 1 | 79445 | 3868 | inactive |
| BRWD3 | 2 | 1.16e5 | 6365 | inactive |
| CR9337 | 1 | 80302 | 3294 | inactive |
| CG31468 | 1 | 78106 | 2080 | inactive |
| CG15142 | 1 | 1.10e5 | 4499 | inactive |
| CG9360 | 1 | 32965 | 3268 | inactive |
| CG33296 | 1 | 1.44e5 | 6581 | inactive |
| CG18335 | 1 | 93128 | 3650 | inactive |
| Tsp42Ec | 1 | 1.53e5 | 5417 | inactive |
| CG14667 | 1 | 1.34e5 | 6378 | inactive |
| ALiX | 1 | 1838 | 980 | inactive |
| CG4045 | 1 | 1833 | 1020 | inactive |
| CG2017 | 1 | 66527 | 3518 | inactive |
| Coa8 | 1 | 1.16e5 | 5702 | inactive |
| ham | 1 | 1.05e5 | 3628 | inactive |
| ham | 2 | 96869 | 4065 | inactive |
| ham | 3 | 97526 | 3896 | inactive |
| CG32053 | 1 | 77991 | 3426 | inactive |
| CG7992 | 1 | 1.38e5 | 6410 | inactive |

7 entries from above, reformatted:
hppy #3 | E2F firefly, rep 1 = 1.64e5; Renilla normaliser, rep 1 = 4970; call = inactive
Nek2 | E2F firefly, rep 1 = 8251; Renilla normaliser, rep 1 = 884; call = inactive
Zip42C.1 | E2F firefly, rep 1 = 1.05e5; Renilla normaliser, rep 1 = 3883; call = inactive
sens-2 #1 | E2F firefly, rep 1 = 1.44e5; Renilla normaliser, rep 1 = 5322; call = inactive
sens-2 #2 | E2F firefly, rep 1 = 1.45e5; Renilla normaliser, rep 1 = 5363; call = inactive
CG31249 | E2F firefly, rep 1 = 1.45e5; Renilla normaliser, rep 1 = 8861; call = inactive
CG43078 #1 | E2F firefly, rep 1 = 86792; Renilla normaliser, rep 1 = 4094; call = inactive

More results:
| gene | reagent no. | E2F firefly, rep 1 | Renilla normaliser, rep 1 | call |
| --- | --- | --- | --- | --- |
| CG6296 | 1 | 1713 | 940 | inactive |
| CG18530 | 1 | 1.50e5 | 7565 | inactive |
| CG13561 | 1 | 1.09e5 | 4759 | inactive |
| Nep6 | 1 | 7002 | 732 | inactive |
| dpr1 | 1 | 1.76e5 | 5611 | inactive |
| dpr1 | 2 | 1.06e5 | 4383 | inactive |
| CG30440 | 1 | 1.54e5 | 5164 | inactive |
| CG30440 | 2 | 1.09e5 | 4672 | inactive |
| CG30440 | 3 | 1.27e5 | 4758 | inactive |
| CG15580 | 1 | 1.20e5 | 6713 | inactive |
| CG18788 | 1 | 92530 | 4031 | inactive |
| Lipt2 | 1 | 88667 | 3325 | inactive |
| Tk | 1 | 1.32e5 | 6070 | inactive |
| CG8476 | 1 | 1.09e5 | 5440 | inactive |
| Lcp65Ad | 1 | 1.02e5 | 4155 | inactive |
| pav | 1 | 1.03e5 | 3528 | inactive |
| Non3 | 1 | 63290 | 3972 | inactive |
| Prosalpha6T | 1 | 1.01e5 | 4071 | inactive |
| CG32669 | 1 | 82044 | 2614 | inactive |
| CR15821 | 1 | 1.03e5 | 4757 | inactive |
| CG12436 (retired record) | 1 | 1.73e5 | 8065 | inactive |
| CG12436 (retired record) | 2 | 1.68e5 | 7737 | inactive |
| CG13110 | 1 | 1.52e5 | 4925 | inactive |
| Wnt6 | 1 | 1.58e5 | 5752 | inactive |
| nito | 1 | 3002 | 227 | inactive |
| CG32027 (retired record) | 1 | 1.37e5 | 4237 | inactive |
| CG5597 | 1 | 84243 | 3527 | inactive |
| CG3108 | 1 | 8235 | 752 | inactive |
| Andorra | 1 | 1.63e5 | 6145 | inactive |
| Mur29B | 1 | 1.35e5 | 6113 | inactive |
| Mur29B | 2 | 1.41e5 | 5357 | inactive |
| CG15258 | 1 | 1.15e5 | 4019 | inactive |
| Sodh2 | 1 | 1.23e5 | 5176 | inactive |
| Hgsnat | 1 | 6768 | 740 | inactive |
| polyph | 1 | 1.44e5 | 4445 | inactive |
